Tested on: broiler chickens (breast tissue genomic DNA)
Assay: Random forest classification of CpG methylation (reduced bisulphite sequencing), breast tissue of antibiotic treated broilers vs controls
Format: in vivo, chicken (Gallus gallus)
[1] = control vs AGP dose (50 g/MT feed day 1-42)
[2] = control vs therapeutic dose (200 g/MT feed day 23-28)
[3] = control vs treatment with no withdrawal (Tylosin 2 kg/MT day 32-42, Amoxicillin 1.86 kg/MT day 37-42)
[4] = control vs treatment with withdrawal (Tylosin 2 kg/MT, Amoxicillin 1.86 kg/MT feed day 32-37)

## Bacitracin Methylene Disalicylate [BMD]
[1]
  Average Classification Error: 0.314
  Best Classification Error: 0.111
[2]
  Average Classification Error: 0.275
  Best Classification Error: 0.056

## CC[C@H]1OC(=O)C[C@@H](O)[C@H](C)[C@@H](O[C@@H]2O[C@H](C)[C@@H](O[C@H]3C[C@@](C)(O)[C@@H](O)[C@H](C)O3)[C@H](N(C)C)[C@H]2O)[C@@H](CC=O)C[C@@H](C)C(=O)/C=C/C(C)=C/[C@@H]1CO[C@@H]1O[C@H](C)[C@@H](O)[C@@H](OC)[C@H]1OC [Tylosin]
[3]
  Average Classification Error: 0.189
  Best Classification Error: 0.071
[4]
  Average Classification Error: 0.169
  Best Classification Error: 0.000

## CC1(C)S[C@@H]2[C@H](NC(=O)[C@H](N)c3ccc(O)cc3)C(=O)N2[C@H]1C(=O)O [Amoxicillin]
[3]
  Average Classification Error: 0.165
  Best Classification Error: 0.000
[4]
  Average Classification Error: 0.161
  Best Classification Error: 0.000

— patent publication US20260015662A1, “DETECTING ANTIBIOTIC AND/OR CHEMICAL USE IN ANIMALS USING EPIGENETIC MEANS” (Evonik Operations GmbH, priority 2022, published 2026)
